Test results as given in PubChem BioAssay AID248 (DTP/NCI, 2004).
The list shows only some results of the screen, not a fair sample: it is rich in T/C values a quarter to a half above the control, in often repeated tests (any T/C) and in doses without a T/C. Further doses and runs are listed elsewhere. T/C: endpoint of the treated group in % of that of the vehicle group. Some doses have a count of surviving animals in place of a T/C: the source files T/C as zero there, which appears to mark a toxic dose or a test without result, not a measured value. Some doses without a T/C left all or most animals alive at the check, yet need not have been tolerated: survival well below the control is almost never listed, so the zero probably covers shortened survival too. Survivors were counted at the toxicity check, usually on the fifth day, unless a day is given; later deaths do not show. Schedules are NCI's codes, taken here to give the interval after Q, in days (D) or hours (H), and the number of doses after X. Some entries were tested several times; the values are given in rising order. Some schedules carry Z or #; the key to these is not given. Where survival is the endpoint, the PubChem record calls one and a half times the control and up active, and a quarter to a half above the control has no call in these data; cut-offs in other NCI protocols can differ. Some T/C values are followed by the survivors on the day toxicity was checked, most often the fifth; where none is given, no animal had died by that day.

System: L1210 leukemia ip in BDF1 mice, survival T/C
Assay: NCI In Vivo Anticancer Drug Screen. Data for tumor model L1210 Leukemia (intraperitoneal) in B6D2F1 (BDF1) mice
Conditions: T/C endpoint: mean survival time, higher T/C = longer survival
[1] = dose: 400.0 mg/kg/injection, schedule: Q04DX003 (ip), vehicle: Klucel (hydroxypropylcellulose) (HPC)
[2] = dose: 400.0 mg/kg/injection, schedule: Q01DX009 (ip), vehicle: Klucel (hydroxypropylcellulose) (HPC)
[3] = dose: 100.0 mg/kg/injection, schedule: Q04DX002 (ip), vehicle: saline with Tween-80
[4] = dose: 200.0 mg/kg/injection, schedule: Q04DX002 (ip), vehicle: saline with Tween-80
[5] = dose: 400.0 mg/kg/injection, schedule: Q04DX002 (ip), vehicle: saline with Tween-80
[6] = dose: 100.0 mg/kg/injection, schedule: Q01DX001 (ip), vehicle: saline
[7] = dose: 200.0 mg/kg/injection, schedule: Q01DX001 (ip), vehicle: saline
[8] = dose: 400.0 mg/kg/injection, schedule: Q01DX001 (ip), vehicle: saline
[9] = dose: 400.0 mg/kg/injection, schedule: Q04DX003 (ip), vehicle: saline with Tween-80
[10] = dose: 200.0 mg/kg/injection, schedule: Q04DX003 (ip), vehicle: Klucel (hydroxypropylcellulose) (HPC)
[11] = dose: 200.0 mg/kg/injection, schedule: Q04DX002 (ip), vehicle: Klucel (hydroxypropylcellulose) (HPC)
[12] = dose: 400.0 mg/kg/injection, schedule: Q04DX002 (ip), vehicle: Klucel (hydroxypropylcellulose) (HPC)
[13] = dose: 100.0 mg/kg/injection, schedule: Q04DX003 (ip), vehicle: saline with Tween-80
[14] = dose: 200.0 mg/kg/injection, schedule: Q04DX003 (ip), vehicle: saline with Tween-80

## CS(=O)(=O)OCCN(CCOS(C)(=O)=O)c1ccc(C=Nc2ccc3ccccc3c2)c(Cl)c1
[1]
  T/C: 130 % of control

## c1ccc(N=NC(N=Nc2ccccc2)=P(c2ccccc2)(c2ccccc2)c2ccccc2)cc1
[2]
  survivor count: 2 of 6

## CCOC(=O)C(C)C(O)c1ccc(OC)cc1 (stereo not drawn)
dose: 50.0 mg/kg/injection, schedule: Q01DX009 (ip), vehicle: saline with Tween-80
  survivor count: 3 of 3

## Cc1ccc(N=Nc2ccc(C)cc2NC(=O)Nc2cc(Cl)ccc2C)cc1
[2]
  survivor count: 3 of 6

## CCC(=O)C(CC(C)[N+](C)(C)C)(c1ccccc1)c1ccccc1 (stereo not drawn)
dose: 200.0 mg/kg/injection, schedule: Q01DX001 (ip), vehicle: carboxymethylcellulose (CMC)
  survivor count: 0 of 4
dose: 400.0 mg/kg/injection, schedule: Q01DX001 (ip), vehicle: carboxymethylcellulose (CMC)
  survivor count: 0 of 4

## COc1ccc(NC(=O)Nc2ccc(C3=NCCN3)cc2)cc1NC(=O)Nc1ccc(C2=NCCN2)cc1
dose: 62.0 mg/kg/injection, schedule: Q01DX Z (ip), vehicle: carboxymethylcellulose (CMC)
  T/C: 127 % of control
dose: 250.0 mg/kg/injection, schedule: Q01DX Z (ip), vehicle: carboxymethylcellulose (CMC)
  survivor count: 1 of 6
dose: 500.0 mg/kg/injection, schedule: Q01DX Z (ip), vehicle: carboxymethylcellulose (CMC)
  survivor count: 0 of 6

## Nc1ccc(N=Nc2ccc(C(=O)Nc3ccc4cc(S(=O)(=O)O)ccc4c3)cc2)c(N)c1N=Nc1ccc(N=Nc2ccc(O)c(C(=O)O)c2)cc1
dose: 150.0 mg/kg/injection, schedule: Q04DX003 (ip), vehicle: saline
  survivor count: 1 of 6
dose: 225.0 mg/kg/injection, schedule: Q04DX003 (ip), vehicle: saline
  survivor count: 0 of 6
dose: 335.0 mg/kg/injection, schedule: Q04DX003 (ip), vehicle: saline
  survivor count: 2 of 6

## N#CSc1ccc(Nc2ccc(SC#N)cc2)cc1
dose: 50.0 mg/kg/injection, schedule: Q01DX009 (ip), vehicle: Klucel (hydroxypropylcellulose) (HPC)
  survivor count: 6 of 6

## CCN(C(=O)c1ccc([N+](=O)[O-])cc1)C(c1ccco1)P(=O)(c1ccccc1)c1ccccc1 (stereo not drawn)
[3]
  survivor count: 0 of 3
[4]
  survivor count: 3 of 3
[5]
  survivor count: 3 of 3

## C[n+]1c(/C=C/c2c[nH]c3ccccc23)ccc2ccccc21
[6]
  survivor count: 3 of 6
[7]
  survivor count: 0 of 6
[8]
  survivor count: 1 of 6

## F[C](F)(F)[Hg][c]1ccccc1
dose: 25.0 mg/kg/injection, schedule: Q04DX002 (ip), vehicle: saline with Tween-80
  survivor count: 1 of 3
dose: 50.0 mg/kg/injection, schedule: Q04DX002 (ip), vehicle: saline with Tween-80
  survivor count: 0 of 3
[3]
  survivor count: 0 of 3

## S=C(C#Cc1ccccc1)Nc1ccccc1
[5]
  survivor count: 0 of 3

## CC1=C(C)C2(C)C(C)(O)C(C)(O)C12C (stereo not drawn)
dose: 150.0 mg/kg/injection, schedule: Q04DX003 (ip), vehicle: saline with Tween-80
  survivor count: 6 of 6
dose: 300.0 mg/kg/injection, schedule: Q04DX003 (ip), vehicle: saline with Tween-80
  survivor count: 6 of 6

## N/N=C1/CCN2CCCc3cccc1c32
[9]
  survivor count: 6 of 6

## CN(C)C(=S)Oc1ccccn1
[10]
  survivor count: 3 of 6
[1]
  survivor count: 0 of 6

## CCC(=O)Nc1ccc(C)cc1C
[2]
  survivor count: 2 of 6

## COc1cc(CC2C(O)C3CCN2CC3)cc(OC)c1OC (stereo not drawn)
dose: 200.0 mg/kg/injection, schedule: Q04DX002 (ip), vehicle: saline
  survivor count: 1 of 3
dose: 400.0 mg/kg/injection, schedule: Q04DX002 (ip), vehicle: saline
  survivor count: 0 of 3

## Cc1cnnn1-c1cccc(C(F)(F)F)c1
[11]
  survivor count: 3 of 3
[12]
  survivor count: 3 of 3

## CC(c1ccccc1)n1ccnc1CO (stereo not drawn)
dose: 100.0 mg/kg/injection, schedule: Q04DX002 (ip), vehicle: Klucel (hydroxypropylcellulose) (HPC)
  T/C: 95, 96, 110, 125 % of control
dose: 200.0 mg/kg/injection, schedule: Q01DX009 (ip), vehicle: Klucel (hydroxypropylcellulose) (HPC)
  survivor count: 5 of 6
[11]
  T/C: 96 [2 of 3 alive], 105 [5 of 6 alive], 108 % of control
  survivor count: 6 of 6
[10]
  survivor count: 5 of 6
[12]
  survivor count: 0 of 6, 2 of 3, 5 of 6

## CCCCN1CCN(CCCC)C1=O
[12]
  survivor count: 2 of 3

## COCCCNP(=S)(N1CC1)N1CC1
dose: 8.0 mg/kg/injection, schedule: Q01DX Z (ip), vehicle: saline
  T/C: 139 % of control
dose: 16.0 mg/kg/injection, schedule: Q01DX Z (ip), vehicle: saline
  survivor count: 6 of 6

## CC[C@H](CC[C@@H](C)[C@H]1CC[C@H]2[C@@H]3CC=C4C[C@@H](O)CC[C@]4(C)[C@H]3CC[C@]12C)C(C)C
[6]
  survivor count: 6 of 6
[7]
  survivor count: 6 of 6
[8]
  survivor count: 4 of 6

## CCCCCCCC(=O)N1CCOCC1
[13]
  survivor count: 6 of 6
[14]
  survivor count: 0 of 6

## C[n+]1ccn(CCCl)c1
dose: 200.0 mg/kg/injection, schedule: Q01DX Z (ip), vehicle: saline
  survivor count: 5 of 6

## COc1ccc(C(=O)CC2CCCC(CC(=O)c3ccc(OC)cc3)N2C)cc1 (stereo not drawn)
dose: 300.0 mg/kg/injection, schedule: Q01DX001 (ip), vehicle: other
  survivor count: 0 of 6

## CC(C)(C)C#C/C(=N\Nc1ccc([N+](=O)[O-])cc1[N+](=O)[O-])c1ccccc1
[4]
  survivor count: 3 of 3

## CC(=O)N(C(=O)c1ccccc1)c1ccc(NS(=O)(=O)c2ccc(C)cc2)cc1
[10]
  survivor count: 6 of 6

## C[N+]1(Cc2c[nH]c3ccsc23)CCCCC1
dose: 25.0 mg/kg/injection, schedule: Q04DX003 (ip), vehicle: saline with Tween-80
  survivor count: 1 of 6
dose: 50.0 mg/kg/injection, schedule: Q04DX003 (ip), vehicle: saline with Tween-80
  survivor count: 0 of 6
[13]
  survivor count: 1 of 6
[14]
  survivor count: 0 of 6
[9]
  survivor count: 0 of 6

## Cc1ccc(OCC(=O)O)c(Cl)c1
[2]
  survivor count: 1 of 6

## OB(O)c1ccccc1
dose: 400.0 mg/kg/injection, schedule: Q01DX009 (ip), vehicle: gum acacia
  survivor count: 0 of 6
